Tested on: jejunal mucosal 5-HT in mice (C57 BL6)
Test: Intestinal 5-HT depletion assay (Example B, single 150 mg/kg oral dose)
Assay type: in vivo, mouse
Details: one day after oral administration of a single 150 mg/kg dose, P-value class (ANOVA)
Protocol: The efficacy of the TPH1 inhibitors of the invention was assessed for the ability to decrease intestinal serotonin concentration in mice. Mice (C57 BL6) were administered a single 150 mg/kg dose of test article by oral gavage. Each animal was euthanized by exsanguination under isoflurane anesthesia. Jejunal intestinal mucosa was isolated and homogenized in 300 μL of a buffer containing 0.3M trichloroacetic acid, 0.1M sodium acetate, 10 mM EDTA, 20 mM sodium bisulfate and 50 mM ascorbic acid. Following centrifugation the 5-HT levels in the supernatants were measured by HPLC. The remaining mucosal pellet was solubilized overnight at 37° C. in a 0.1% sodium dodecyl sulfate buffer in 0.1N NaOH followed by determination of protein concentrations using a BCA protein assay (Pierce, Rockford, Ill. 5-HT levels were normalized to protein and data were expressed as mean percent reduction of mucosal 5-HT levels relative to vehicle control SEM (percent 5-HT reduction). All animal studies were carried out with protocols approved by the Institutional Animal Care and Use Committee.
P-values, indicating statistical significance of the data (ANOVA) are provided in the table: * refers to P<0.05, ** refers to P<0.01, *** refers to P<0.005, and refers to P<0.0005.

Row | Compound | Efficacy (statistical significance of reduction of mucosal 5-HT concentrations relative to vehicle)
1 | Cc1ccn(-c2cc(Cl)ccc2[C@@H](Oc2cc(N3CCC4(CC3)CN[C@H](C(=O)O)C4)nc(N)n2)C(F)(F)F)n1 [Example 10d, (S)-8-(2-amino-6-((R)-1-(4-chloro-2-(3-methyl-H-pyrazol-1-yl)phenyl)-2,2,2-trifluoroethoxy)pyrimidin-4-yl)-2,8-diazaspiro[4.5]decane-3-carboxylic acid] | *** (*** refers to P<0.005)
2 | Cc1ccn(-c2cc(Cl)ccc2[C@@H](Oc2cc(N3CCC4(CC3)CNC(C(=O)O)C4)nc(N)n2)C(F)(F)F)n1 (stereo partly drawn) [Example 10b, 8-(2-amino-6-((R)-1-(4-chloro-2-(3-methyl-1H-pyrazol-1-yl)phenyl)-2,2,2-trifluoroethoxy)pyrimidin-4-yl)-2,8-diazaspiro[4.5]decane-3-carboxylic acid] | *** (*** refers to P<0.005)

Source: patent publication US11759462B2, “Spirocyclic compounds as tryptophan hydroxylase inhibitors” (priority 2013, dated 2023)
